Test results taken from patent US20090269394A1, “METHODS AND COMPOSITIONS FOR TREATING ONCHOMYCOSIS” (priority 2008, published 2009).
At least one structure is not confirmed: it was looked up by name or label, or the drawing left a doubt.

Legend:
Assay type in all cases: cell-based
[1] = tested on: Trichophyton mentagrophytes; experiment: MIC/MFC microtiter broth dilution; details: n = 14 isolates; NB-002 as μg CPC/ml
Scedosporium spp. = experiment: MIC against rare onychomycosis pathogens (CLSI M 38-A); details: 5 isolates; NB-002 as μg CPC/ml
Source text: (§1) Methods: All fungi were from patients, many of which had onychomycosis or another tinea infection.

Scopulariopsis spp. = experiment: as above; details: 5 isolates; NB-002 as μg CPC/ml
Source text: as §1

Scytalydium spp. = experiment: as above; details: 10 isolates; NB-002 as μg CPC/ml
Source text: as §1

Paecilomyces spp. = experiment: as above; details: 4 isolates; NB-002 as μg CPC/ml
Source text: as §1

Epidermophyton floccosum = experiment: MIC/MFC microtiter broth dilution; details: n = 6 isolates; NB-002 as μg CPC/ml

## CCC(C)n1ncn(-c2ccc(N3CCN(c4ccc(OCC5COC(Cn6cncn6)(c6ccc(Cl)cc6Cl)O5)cc4)CC3)cc2)c1=O (stereo not drawn) [Itraconazole]
[1]
  MFC Range: 0.25->16
Scedosporium spp.
  MIC range: 4->8
Scopulariopsis spp.
  MIC range: 4->8
Scytalydium spp.
  MIC range: 4->8
Paecilomyces spp.
  MIC range: 1->8
Epidermophyton floccosum
  MFC Range: 0.5->16
